# Data published in the supplement of paper PMC10849652.
# The chains behind the UniProt entries cited, without tags or fusion partners. Where a name states a change or a piece, a line headed by the entry shows the natural chain unless it says otherwise.
# UniProt P69905, whole entry, looked up: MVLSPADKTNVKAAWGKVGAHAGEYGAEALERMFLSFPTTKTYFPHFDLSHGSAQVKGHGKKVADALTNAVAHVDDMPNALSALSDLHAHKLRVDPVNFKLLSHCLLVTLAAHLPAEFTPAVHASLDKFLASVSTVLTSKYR
# UniProt P52655, whole entry, looked up: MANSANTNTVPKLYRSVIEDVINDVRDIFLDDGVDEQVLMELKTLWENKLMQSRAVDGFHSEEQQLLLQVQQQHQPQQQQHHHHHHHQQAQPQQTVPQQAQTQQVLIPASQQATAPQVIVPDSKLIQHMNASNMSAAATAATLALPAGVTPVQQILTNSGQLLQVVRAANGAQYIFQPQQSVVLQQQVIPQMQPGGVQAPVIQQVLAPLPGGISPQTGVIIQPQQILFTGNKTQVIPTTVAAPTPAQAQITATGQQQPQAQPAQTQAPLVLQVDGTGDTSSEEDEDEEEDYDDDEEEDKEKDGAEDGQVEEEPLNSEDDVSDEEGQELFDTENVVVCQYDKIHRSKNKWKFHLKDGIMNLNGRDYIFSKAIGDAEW
# UniProt P06865: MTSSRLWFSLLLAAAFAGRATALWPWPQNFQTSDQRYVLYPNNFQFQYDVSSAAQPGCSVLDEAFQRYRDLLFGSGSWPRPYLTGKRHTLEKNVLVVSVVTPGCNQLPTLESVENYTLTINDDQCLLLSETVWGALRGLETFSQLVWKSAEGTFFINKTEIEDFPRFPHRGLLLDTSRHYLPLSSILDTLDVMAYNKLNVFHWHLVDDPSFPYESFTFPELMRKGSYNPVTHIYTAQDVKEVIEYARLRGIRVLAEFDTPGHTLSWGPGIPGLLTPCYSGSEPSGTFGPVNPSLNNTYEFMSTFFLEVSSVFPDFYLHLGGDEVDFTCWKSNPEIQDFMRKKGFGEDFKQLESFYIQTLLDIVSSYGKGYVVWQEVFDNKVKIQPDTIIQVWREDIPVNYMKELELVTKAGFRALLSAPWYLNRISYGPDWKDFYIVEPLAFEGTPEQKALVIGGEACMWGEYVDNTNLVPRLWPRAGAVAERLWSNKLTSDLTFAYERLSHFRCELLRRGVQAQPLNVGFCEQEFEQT
# UniProt P02042: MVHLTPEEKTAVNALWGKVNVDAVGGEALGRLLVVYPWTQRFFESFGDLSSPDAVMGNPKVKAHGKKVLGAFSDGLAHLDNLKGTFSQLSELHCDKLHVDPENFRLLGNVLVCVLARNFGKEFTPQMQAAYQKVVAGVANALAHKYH
# UniProt P78417: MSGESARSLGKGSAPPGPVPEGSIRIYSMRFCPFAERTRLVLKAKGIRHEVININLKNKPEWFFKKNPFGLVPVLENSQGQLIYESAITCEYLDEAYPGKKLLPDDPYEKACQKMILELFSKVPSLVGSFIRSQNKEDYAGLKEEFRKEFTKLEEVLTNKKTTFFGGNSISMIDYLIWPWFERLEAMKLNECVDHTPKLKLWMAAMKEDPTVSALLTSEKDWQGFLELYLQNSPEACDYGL
# UniProt Q9ULT8: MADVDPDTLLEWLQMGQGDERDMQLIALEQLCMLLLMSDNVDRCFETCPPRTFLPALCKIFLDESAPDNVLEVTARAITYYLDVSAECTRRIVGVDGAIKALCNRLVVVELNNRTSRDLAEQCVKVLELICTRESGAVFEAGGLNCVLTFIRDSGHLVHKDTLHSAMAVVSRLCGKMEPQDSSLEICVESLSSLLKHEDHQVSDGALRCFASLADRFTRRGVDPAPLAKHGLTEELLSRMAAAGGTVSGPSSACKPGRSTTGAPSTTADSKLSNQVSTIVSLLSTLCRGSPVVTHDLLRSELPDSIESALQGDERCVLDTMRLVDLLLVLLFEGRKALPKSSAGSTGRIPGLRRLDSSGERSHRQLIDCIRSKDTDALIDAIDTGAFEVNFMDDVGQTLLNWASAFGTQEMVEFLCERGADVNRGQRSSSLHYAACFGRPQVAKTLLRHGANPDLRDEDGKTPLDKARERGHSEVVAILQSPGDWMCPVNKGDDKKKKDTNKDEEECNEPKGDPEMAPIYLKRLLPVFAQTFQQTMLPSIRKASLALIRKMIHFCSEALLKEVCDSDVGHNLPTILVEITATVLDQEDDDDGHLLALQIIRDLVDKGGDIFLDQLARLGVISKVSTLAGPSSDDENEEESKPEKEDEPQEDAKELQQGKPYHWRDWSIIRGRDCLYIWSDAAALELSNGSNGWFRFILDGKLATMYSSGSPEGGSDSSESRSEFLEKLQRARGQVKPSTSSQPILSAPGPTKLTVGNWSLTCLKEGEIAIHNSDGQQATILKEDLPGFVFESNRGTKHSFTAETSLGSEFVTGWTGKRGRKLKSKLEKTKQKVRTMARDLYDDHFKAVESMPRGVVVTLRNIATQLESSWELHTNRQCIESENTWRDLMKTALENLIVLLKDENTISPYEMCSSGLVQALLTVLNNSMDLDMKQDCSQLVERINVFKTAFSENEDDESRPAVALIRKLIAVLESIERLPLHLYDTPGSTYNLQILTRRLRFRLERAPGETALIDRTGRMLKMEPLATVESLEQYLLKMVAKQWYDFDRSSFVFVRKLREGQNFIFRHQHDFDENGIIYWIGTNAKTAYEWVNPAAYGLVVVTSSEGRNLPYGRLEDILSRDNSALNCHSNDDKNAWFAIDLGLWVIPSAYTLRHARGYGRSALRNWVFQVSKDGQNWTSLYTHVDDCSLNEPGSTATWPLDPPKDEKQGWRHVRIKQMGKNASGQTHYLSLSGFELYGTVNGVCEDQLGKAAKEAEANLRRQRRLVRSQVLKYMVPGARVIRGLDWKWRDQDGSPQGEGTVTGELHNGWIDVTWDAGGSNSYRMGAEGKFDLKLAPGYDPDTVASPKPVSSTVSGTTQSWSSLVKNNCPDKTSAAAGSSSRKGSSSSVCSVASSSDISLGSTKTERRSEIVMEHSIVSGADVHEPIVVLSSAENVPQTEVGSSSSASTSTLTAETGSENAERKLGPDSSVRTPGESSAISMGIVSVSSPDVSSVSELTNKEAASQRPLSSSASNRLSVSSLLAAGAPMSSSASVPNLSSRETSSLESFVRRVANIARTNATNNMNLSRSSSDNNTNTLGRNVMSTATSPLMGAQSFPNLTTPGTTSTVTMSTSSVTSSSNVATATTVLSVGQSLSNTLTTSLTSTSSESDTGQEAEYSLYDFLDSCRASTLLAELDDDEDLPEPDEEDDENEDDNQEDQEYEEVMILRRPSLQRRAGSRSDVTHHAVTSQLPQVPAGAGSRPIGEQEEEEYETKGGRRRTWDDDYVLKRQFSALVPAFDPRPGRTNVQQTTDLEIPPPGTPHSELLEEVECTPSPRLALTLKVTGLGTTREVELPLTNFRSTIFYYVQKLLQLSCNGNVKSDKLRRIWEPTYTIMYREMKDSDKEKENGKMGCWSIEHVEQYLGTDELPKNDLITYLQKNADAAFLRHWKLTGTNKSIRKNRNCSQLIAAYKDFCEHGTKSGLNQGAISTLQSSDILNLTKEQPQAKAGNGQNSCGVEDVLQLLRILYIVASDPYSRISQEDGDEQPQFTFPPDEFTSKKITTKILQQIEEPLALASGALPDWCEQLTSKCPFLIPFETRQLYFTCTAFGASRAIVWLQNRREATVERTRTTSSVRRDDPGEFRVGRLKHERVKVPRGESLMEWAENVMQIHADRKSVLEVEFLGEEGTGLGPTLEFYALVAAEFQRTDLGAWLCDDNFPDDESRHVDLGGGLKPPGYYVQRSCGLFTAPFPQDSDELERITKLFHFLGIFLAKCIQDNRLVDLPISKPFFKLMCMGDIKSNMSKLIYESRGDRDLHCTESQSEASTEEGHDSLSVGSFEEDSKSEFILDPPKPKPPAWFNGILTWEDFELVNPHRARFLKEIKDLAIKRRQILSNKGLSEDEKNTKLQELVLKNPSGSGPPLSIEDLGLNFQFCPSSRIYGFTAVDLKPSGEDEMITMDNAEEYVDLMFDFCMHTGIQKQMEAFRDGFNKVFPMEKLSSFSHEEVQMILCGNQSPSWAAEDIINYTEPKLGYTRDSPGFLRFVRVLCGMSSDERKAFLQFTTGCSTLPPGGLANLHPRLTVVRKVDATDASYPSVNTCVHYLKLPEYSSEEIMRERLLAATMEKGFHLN
# UniProt P02008: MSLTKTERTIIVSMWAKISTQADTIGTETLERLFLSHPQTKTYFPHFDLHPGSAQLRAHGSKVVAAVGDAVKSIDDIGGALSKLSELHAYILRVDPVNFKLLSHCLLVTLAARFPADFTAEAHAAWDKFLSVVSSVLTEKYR
# UniProt O43824: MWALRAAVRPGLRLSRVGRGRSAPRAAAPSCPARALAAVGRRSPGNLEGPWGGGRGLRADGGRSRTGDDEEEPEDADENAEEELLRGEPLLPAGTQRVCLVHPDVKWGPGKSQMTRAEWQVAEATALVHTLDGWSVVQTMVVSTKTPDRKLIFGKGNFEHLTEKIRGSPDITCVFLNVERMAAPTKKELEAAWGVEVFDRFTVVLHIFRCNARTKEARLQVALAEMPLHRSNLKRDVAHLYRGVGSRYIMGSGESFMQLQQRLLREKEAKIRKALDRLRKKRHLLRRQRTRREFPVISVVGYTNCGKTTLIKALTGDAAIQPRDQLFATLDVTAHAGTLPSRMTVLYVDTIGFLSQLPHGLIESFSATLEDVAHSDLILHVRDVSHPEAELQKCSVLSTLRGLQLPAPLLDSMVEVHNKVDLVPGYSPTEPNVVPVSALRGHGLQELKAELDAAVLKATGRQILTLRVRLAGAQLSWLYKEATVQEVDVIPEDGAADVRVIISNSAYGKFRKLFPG
# UniProt P49841: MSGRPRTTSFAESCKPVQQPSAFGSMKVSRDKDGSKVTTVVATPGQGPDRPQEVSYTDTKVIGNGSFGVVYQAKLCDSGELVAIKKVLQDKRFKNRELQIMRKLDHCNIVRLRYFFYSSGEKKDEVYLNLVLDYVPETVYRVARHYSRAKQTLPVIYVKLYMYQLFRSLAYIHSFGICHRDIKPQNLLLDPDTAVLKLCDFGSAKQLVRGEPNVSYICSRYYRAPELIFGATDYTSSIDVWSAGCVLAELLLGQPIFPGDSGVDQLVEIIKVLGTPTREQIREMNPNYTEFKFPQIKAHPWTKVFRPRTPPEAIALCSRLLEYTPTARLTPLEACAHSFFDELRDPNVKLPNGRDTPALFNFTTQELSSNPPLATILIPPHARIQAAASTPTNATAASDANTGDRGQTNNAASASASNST
# UniProt O14929: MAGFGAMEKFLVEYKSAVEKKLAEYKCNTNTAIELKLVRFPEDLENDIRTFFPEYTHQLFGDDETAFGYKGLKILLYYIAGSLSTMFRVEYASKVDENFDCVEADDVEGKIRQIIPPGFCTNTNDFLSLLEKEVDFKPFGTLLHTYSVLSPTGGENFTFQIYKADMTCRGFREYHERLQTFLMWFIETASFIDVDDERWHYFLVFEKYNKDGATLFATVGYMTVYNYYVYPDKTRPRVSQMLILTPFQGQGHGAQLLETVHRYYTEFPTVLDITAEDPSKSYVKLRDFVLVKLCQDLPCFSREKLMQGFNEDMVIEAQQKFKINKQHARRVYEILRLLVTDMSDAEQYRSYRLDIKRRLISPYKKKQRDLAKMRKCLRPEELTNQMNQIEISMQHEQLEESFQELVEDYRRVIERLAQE
# UniProt Q92664: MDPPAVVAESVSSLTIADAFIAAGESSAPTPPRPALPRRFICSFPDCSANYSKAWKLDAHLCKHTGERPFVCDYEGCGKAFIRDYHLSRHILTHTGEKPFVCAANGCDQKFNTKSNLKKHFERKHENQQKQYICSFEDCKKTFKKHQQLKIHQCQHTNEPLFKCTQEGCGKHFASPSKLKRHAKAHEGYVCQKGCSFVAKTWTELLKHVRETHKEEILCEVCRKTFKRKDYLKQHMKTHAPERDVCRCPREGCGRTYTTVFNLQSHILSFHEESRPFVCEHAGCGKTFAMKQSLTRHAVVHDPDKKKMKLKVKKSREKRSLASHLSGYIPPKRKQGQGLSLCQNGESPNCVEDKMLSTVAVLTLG
# UniProt P29084: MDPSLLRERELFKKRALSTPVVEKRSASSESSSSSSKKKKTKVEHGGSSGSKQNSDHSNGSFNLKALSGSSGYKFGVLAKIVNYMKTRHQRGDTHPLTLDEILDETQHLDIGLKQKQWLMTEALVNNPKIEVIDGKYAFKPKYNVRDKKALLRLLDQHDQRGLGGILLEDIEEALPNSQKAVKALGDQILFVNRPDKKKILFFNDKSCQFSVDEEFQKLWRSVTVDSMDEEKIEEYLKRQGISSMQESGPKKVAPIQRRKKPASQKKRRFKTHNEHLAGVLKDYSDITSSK
# UniProt Q00403, whole entry, looked up: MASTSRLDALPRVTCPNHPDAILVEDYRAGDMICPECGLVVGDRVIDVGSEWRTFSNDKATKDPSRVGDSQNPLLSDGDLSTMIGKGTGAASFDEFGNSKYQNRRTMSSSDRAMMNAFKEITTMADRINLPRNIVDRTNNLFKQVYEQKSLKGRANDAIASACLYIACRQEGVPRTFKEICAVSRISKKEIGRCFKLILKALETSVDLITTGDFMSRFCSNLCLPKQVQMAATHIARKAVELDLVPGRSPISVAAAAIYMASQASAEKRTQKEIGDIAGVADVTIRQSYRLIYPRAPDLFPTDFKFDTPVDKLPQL
# The list shows a part of the results.
# Legend:
# Test in all cases: log2 fold change, soluble protein after heating vs DMSO (PISA); higher = thermal stabilisation; K562 cells, 10 uM, 30 min; active = over 0.2 and 3.5 SD of the protein, either way, in both replicates (recomputed)
# [1] = compound: NC(=O)Nc1cc(-c2cccc(F)c2)sc1C(=O)N[C@H]1CCCNC1
# Procedure, shortened: (§1)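 Quantification of soluble protein used TMTpro 16plex LC-MS/MS, with channel sums equalised. Samples were the supernatant after 21,000xg for 90 min of pooled aliquots from K562 cells (2×10^6 cells/mL) treated with 10 μM compound for 30 min, heated for 3 min over 48°C-58°C, and extracted in PBS with 0.5% NP-40 at 4°C. Values, from duplicates, describe thermal stability against control samples on a log2 fold-change scale.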
# [2] = compound: NC(=O)c1cnc(N[C@@H]2CCCC[C@@H]2N)nc1Nc1cccc(-n2nccn2)c1
# Procedure, shortened: as §1
# [3] = compound: NC1(c2ccc(-c3nc4ccn5c(=O)[nH]nc5c4cc3-c3ccccc3)cc2)CCC1
# Procedure, shortened: as §1
# [4] = compound: NCC(=O)Nc1ccc(-n2nc(C(F)(F)F)cc2-c2ccc3c(ccc4ccccc43)c2)cc1
# Procedure, shortened: as §1
# entinostat = compound: Nc1ccccc1NC(=O)c1ccc(CNC(=O)OCc2cccnc2)cc1 [entinostat]
# Procedure, shortened: as §1
# vorinostat = compound: O=C(CCCCCCC(=O)Nc1ccccc1)NO [vorinostat]
# Procedure, shortened: as §1
# citarinostat = compound: O=C(CCCCCCNC(=O)c1cnc(N(c2ccccc2)c2ccccc2Cl)nc1)NO [citarinostat]
# Procedure, shortened: as §1
# silmitasertib = compound: O=C(O)c1ccc2c(c1)nc(Nc1cccc(Cl)c1)c1ccncc12 [silmitasertib]
# Procedure, shortened: as §1
# [5] = compound: O=C1NC(=O)C(c2cnc3ccccn23)=C1c1cn2c3c(cc(F)cc13)CN(C(=O)N1CCCCC1)CC2
# Procedure, shortened: as §1
# [6] = compound: c1cc(OCCN2CCCCC2)cc(-c2n[nH]c3ccc(-c4nnc[nH]4)cc23)c1
# Procedure, shortened: as §1
# entospletinib = compound: c1cn2cc(-c3ccc4cn[nH]c4c3)nc(Nc3ccc(N4CCOCC4)cc3)c2n1 [entospletinib]
# Procedure, shortened: as §1
Target,log2 fold change [1],log2 fold change [2],log2 fold change [3],log2 fold change [4],log2 fold change (entinostat),log2 fold change (vorinostat),log2 fold change (citarinostat),log2 fold change (silmitasertib),log2 fold change [5],log2 fold change [6],log2 fold change (entospletinib)
HBA1 (UniProt P69905),inactive: 0.016,inactive: 0.032,inactive: 0.003,inactive: 0.103,inactive: 0.059,inactive: -0.031,inactive: 0.007,inactive: -0.036,inactive: -0.037,inactive: 0.012,–
GTF2A1 (UniProt P52655),inactive: -0.029,inactive: 0.249,inactive: 0.01,inactive: 0.093,inactive: -0.116,inactive: -0.031,inactive: -0.035,inactive: 0.004,inactive: -0.028,inactive: 0.016,–
HEXA (UniProt P06865),inactive: -0.025,inactive: -0.06,inactive: -0.156,inactive: 0.006,inactive: -0.028,inactive: -0.02,inactive: 0.056,inactive: -0.013,inactive: -0.037,inactive: -0.022,–
HBD (UniProt P02042),inactive: -0.08,inactive: 1.09,inactive: 0.014,inactive: 0.013,inactive: 0.043,inactive: -0.118,inactive: -0.027,inactive: 0.016,inactive: -0.095,inactive: 0.015,inactive: 0.111
GSTO1 (UniProt P78417),inactive: -0.015,inactive: -0.002,inactive: 0.022,inactive: 0.001,inactive: -0.022,inactive: 0.058,inactive: 0.039,inactive: -0.047,inactive: 0.018,inactive: -0.022,–
HECTD1 (UniProt Q9ULT8),inactive: -0.036,inactive: -0.087,inactive: -0.017,inactive: -0.01,inactive: 0.042,inactive: 0.06,inactive: 0.123,inactive: 0.075,inactive: -0.027,inactive: -0.17,–
HBZ (UniProt P02008),inactive: 0.03,inactive: -0.042,inactive: 0,inactive: 0.026,inactive: 0.059,inactive: -0.022,inactive: 0.027,inactive: -0.019,inactive: -0.055,inactive: -0.018,–
GTPBP6 (UniProt O43824),inactive: -0.052,inactive: -0.066,inactive: 0.017,inactive: -0.003,inactive: -0.019,inactive: -0.1,inactive: 0.093,inactive: -0.115,inactive: 0.086,inactive: -0.011,–
GSK3B isoform 2 (UniProt P49841),inactive: -0.027,inactive: -0.06,inactive: -0.055,inactive: -0.028,inactive: 0.005,inactive: 0.023,inactive: 0.047,inactive: 0.012,active: 0.29,–,–
HAT1 (UniProt O14929),inactive: 0.002,inactive: 0.006,inactive: -0.076,inactive: 0.01,inactive: 0.053,inactive: 0.001,inactive: 0.071,inactive: 0.052,inactive: -0.055,inactive: -0.016,–
GTF3C4 (UniProt Q9UKN8),inactive: -0.015,inactive: -0.012,inactive: -0.077,inactive: -0.04,inactive: 0.024,inactive: -0.103,inactive: 0.04,inactive: 0.03,inactive: -0.013,inactive: -0.019,–
H2AFX (UniProt P16104),inactive: 0.054,inactive: 0.245,inactive: 0.441,inactive: 0.041,inactive: 0.132,inactive: 0.216,inactive: -0.035,inactive: 0.08,inactive: 0.077,inactive: -0.083,–
GTF3A (UniProt Q92664),inactive: -0.04,inactive: -0.095,inactive: 0.046,inactive: -0.098,inactive: -0.013,inactive: 0.026,inactive: 0.06,inactive: 0.043,inactive: 0.011,inactive: -0.072,–
GTF2E2 (UniProt P29084),inactive: -0.097,inactive: -0.052,inactive: -0.048,inactive: -0.048,inactive: 0.025,inactive: 0.093,inactive: 0.093,inactive: 0.085,inactive: 0.054,inactive: -0.067,–
GTF2B (UniProt Q00403),inactive: -0.009,inactive: -0.08,inactive: -0.172,inactive: -0.056,inactive: 0.047,inactive: 0.211,inactive: 0.037,inactive: 0.005,inactive: -0.156,inactive: 0.022,–

# Fetched one by one from the list above:
Target,log2 fold change [1],log2 fold change [2],log2 fold change [3],log2 fold change [4],log2 fold change (entinostat),log2 fold change (vorinostat),log2 fold change (citarinostat),log2 fold change (silmitasertib),log2 fold change [5],log2 fold change [6],log2 fold change (entospletinib)
GTF2A1 (UniProt P52655),inactive: -0.029,inactive: 0.249,inactive: 0.01,inactive: 0.093,inactive: -0.116,inactive: -0.031,inactive: -0.035,inactive: 0.004,inactive: -0.028,inactive: 0.016,–
HECTD1 (UniProt Q9ULT8),inactive: -0.036,inactive: -0.087,inactive: -0.017,inactive: -0.01,inactive: 0.042,inactive: 0.06,inactive: 0.123,inactive: 0.075,inactive: -0.027,inactive: -0.17,–
